In publication doi:10.1101/2025.04.28.650926 (bioRxiv, 2025):
Positions count from the first letter of the chain named. Construct, isoform or probe ends are uncertain for at least one entry. Where a protein sequence is shown, tags need not be part of it.

Columns and labels:
Test in all cases: fluorescence polarization
[1] = target: T1, HSF1-DBD (human) (UniProt Q00613); details: no AZD; residues 1-123
T1 sequence (looked up): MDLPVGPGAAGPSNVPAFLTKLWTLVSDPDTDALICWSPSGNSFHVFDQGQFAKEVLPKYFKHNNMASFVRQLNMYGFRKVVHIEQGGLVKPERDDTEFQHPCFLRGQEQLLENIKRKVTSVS

[2] = target: T2, HSF1-LZ4m (HSF1-CT) M391K,L395P,L398R (human) (UniProt Q00613); details: 10 uM AZD; residues 1-529
T2 sequence (looked up): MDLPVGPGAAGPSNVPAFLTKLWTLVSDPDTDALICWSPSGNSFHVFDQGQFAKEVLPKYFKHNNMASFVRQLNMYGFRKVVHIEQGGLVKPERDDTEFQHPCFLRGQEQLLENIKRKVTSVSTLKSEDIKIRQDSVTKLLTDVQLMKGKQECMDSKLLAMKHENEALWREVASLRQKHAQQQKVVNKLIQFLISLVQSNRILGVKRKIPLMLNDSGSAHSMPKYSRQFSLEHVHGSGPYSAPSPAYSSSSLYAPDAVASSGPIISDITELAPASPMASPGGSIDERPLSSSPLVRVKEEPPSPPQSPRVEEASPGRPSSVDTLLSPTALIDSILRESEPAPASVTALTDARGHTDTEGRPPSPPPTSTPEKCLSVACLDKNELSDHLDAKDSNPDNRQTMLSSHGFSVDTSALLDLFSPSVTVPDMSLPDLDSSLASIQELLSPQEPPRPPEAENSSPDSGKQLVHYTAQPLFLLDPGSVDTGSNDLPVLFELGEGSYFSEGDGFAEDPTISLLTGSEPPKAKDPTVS

[3] = target: T3, HSF1-WT trimer/oligomer (SEC peak 1) (human) (UniProt Q00613); details: 10 uM AZD; residues 1-529
T3 sequence (looked up): T2 sequence (looked up) with K391M, P395L, R398L

[4] = target: T4, HSF1-ΔTAD (human) (UniProt Q00613); details: 10 uM AZD; residues 1-409
T4 sequence (looked up): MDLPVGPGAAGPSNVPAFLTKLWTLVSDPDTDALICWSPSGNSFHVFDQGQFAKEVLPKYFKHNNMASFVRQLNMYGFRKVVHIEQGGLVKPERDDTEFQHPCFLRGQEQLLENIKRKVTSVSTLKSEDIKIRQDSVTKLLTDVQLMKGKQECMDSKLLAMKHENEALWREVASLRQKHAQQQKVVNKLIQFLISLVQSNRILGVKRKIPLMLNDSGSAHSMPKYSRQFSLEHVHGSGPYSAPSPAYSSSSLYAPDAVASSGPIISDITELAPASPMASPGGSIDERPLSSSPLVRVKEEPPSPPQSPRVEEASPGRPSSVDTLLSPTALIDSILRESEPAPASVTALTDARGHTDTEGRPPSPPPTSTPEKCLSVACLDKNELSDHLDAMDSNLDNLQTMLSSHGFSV

[5] = target: T5, HSF1-WT monomer (SEC peak 3) (human) (UniProt Q00613); details: no AZD; residues 1-529
T5 sequence (looked up): T2 sequence (looked up) with K391M, P395L, R398L

| Sequence | Kd [1] | Kd [2] | Kd [3] | Kd [4] | Kd [5] |
| --- | --- | --- | --- | --- | --- |
| CCTGGAATATTCCCGAACTGGC (double strand) [HSE (canonical three-site)] | 261 nM | 114 nM | 113 nM | 202 nM | – |
| CCTGGCGTAGTCCCCGCCTGGC (double strand) [mHSE (mutant HSE)] | – | – | – | – | 1170 nM |
